Results as given in publication PMC9332573.
No constants are given. Whether binding was seen depends on the method and setting. Binding seen in cells or lysates may run through a third protein. A yes stands for co-enrichment or nearness to the bait. Other partners may have been found.

Amino acid sequences for entries named in this document (tags omitted). A change or cut given only in a name is not applied to a line headed by its entry. Residues count along the entry.
UniProt Q9NYG2: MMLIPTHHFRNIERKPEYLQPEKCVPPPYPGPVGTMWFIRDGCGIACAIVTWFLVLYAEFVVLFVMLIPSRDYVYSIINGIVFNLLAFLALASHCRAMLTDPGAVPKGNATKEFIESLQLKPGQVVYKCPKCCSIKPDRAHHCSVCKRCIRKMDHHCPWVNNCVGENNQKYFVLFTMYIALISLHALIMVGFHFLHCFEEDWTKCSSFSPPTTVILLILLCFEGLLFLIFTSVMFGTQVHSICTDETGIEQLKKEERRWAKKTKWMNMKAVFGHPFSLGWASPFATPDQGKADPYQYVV
UniProt Q8NE71: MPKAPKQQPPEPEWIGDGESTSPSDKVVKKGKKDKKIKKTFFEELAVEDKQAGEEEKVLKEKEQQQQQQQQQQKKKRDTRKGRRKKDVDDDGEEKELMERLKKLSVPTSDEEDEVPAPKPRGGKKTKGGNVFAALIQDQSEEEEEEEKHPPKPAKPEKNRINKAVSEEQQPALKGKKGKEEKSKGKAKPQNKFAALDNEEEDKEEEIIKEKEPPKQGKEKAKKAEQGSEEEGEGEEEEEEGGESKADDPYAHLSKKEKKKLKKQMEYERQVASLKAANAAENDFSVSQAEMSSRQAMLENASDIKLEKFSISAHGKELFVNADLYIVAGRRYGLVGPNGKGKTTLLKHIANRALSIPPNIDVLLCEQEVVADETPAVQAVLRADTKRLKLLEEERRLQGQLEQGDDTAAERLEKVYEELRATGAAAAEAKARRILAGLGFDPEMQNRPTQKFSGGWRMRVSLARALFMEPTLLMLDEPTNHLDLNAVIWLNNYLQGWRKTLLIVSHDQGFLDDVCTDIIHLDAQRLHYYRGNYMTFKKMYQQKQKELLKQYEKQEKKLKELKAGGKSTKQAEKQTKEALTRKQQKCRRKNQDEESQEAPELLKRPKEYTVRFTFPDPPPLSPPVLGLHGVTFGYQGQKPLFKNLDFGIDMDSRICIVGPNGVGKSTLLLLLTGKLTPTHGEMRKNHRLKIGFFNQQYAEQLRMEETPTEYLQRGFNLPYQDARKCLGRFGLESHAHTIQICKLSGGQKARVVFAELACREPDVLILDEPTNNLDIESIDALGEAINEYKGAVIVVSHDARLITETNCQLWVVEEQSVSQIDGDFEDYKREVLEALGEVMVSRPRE
UniProt P05091, residues 18-517: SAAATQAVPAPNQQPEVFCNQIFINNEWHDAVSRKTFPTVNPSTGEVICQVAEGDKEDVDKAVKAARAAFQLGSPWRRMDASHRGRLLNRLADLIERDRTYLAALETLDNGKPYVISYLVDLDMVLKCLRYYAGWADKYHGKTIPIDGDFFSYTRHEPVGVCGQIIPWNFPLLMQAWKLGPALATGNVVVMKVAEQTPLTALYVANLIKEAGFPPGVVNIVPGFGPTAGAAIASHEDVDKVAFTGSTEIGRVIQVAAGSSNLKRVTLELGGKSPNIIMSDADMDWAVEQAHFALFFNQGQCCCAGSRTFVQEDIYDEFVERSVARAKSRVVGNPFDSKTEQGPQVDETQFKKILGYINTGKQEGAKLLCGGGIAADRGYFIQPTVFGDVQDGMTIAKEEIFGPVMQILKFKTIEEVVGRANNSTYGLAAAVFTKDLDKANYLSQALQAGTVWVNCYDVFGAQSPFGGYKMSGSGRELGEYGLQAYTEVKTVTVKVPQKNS

These molecules were tested against human DHHC3 (hDHHC3) with a C-terminal Twin-Strep tag (human) (UniProt Q9NYG2) (assay: affinity purification with mass spectrometry; purified C-terminal Strep-tagged hDHHC3 on Strep-Tactin resin incubated with HEK 293T lysate (RIPA) at 4 °C for 30 min; washed with buffer W, eluted with desthiobiotin; LC-MS/MS; Strep-Tactin beads alone as negative control; hits detected repeatedly in three experiments; only the target purified).

Row | Molecule | binding
1 | Sodium/potassium-transporting ATPase subunit beta-3 (from UniProt P54709 1-279) | binds
2 | Phosphoserine aminotransferase (protein, UniProt Q9Y617 1-370) MDAPRQVVNFGPGPAKLPHSVLLEIQKELLDYKGVGISVLEMSHRSSDFAKIINNTENLVRELLAVPDNYKVIFLQGGGCGQFSAVPLNLIGLKAGRCADYVVTGAWSAKAAEEAKKFGTINIVHPKLGSYTKIPDPSTWNLNPDASYVYYCANETVHGVEFDFIPDVKGAVLVCDMSSNFLSKPVDVSKFGVIFAGAQKNVGSAGVTVVIVRDDLLGFALRECPSVLEYKVQAGNSSLYNTPPCFSIYVMGLVLEWIKNNGGAAAMEKLSSIKSQTIYEIIDNSQGFYVCPVEPQNRSKMNIPFRIGNAKGDDALEKRFLDKALELNMLSLKGHRSVGGIRASLYNAVTIEDVQKLAAFMKKFLEMHQL | binds
3 | Peroxiredoxin-5 (protein, UniProt P30044 53-214) MAPIKVGDAIPAVEVFEGEPGNKVNLAELFKGKKGVLFGVPGAFTPGCSKTHLPGFVEQAEALKAKGVQVVACLSVNDAFVTGEWGRAHKAEGKVRLLADPTGAFGKETDLLLDDSLVSIFGNRRLKRFSMVVQDGIVKALNVEPDGTGLTCSLAPNIISQL | binds
4 | Syntaxin-12 (protein, UniProt Q86Y82 1-276) MSYGPLDMYRNPGPSGPQLRDFSSIIQTCSGNIQRISQATAQIKNLMSQLGTKQDSSKLQENLQQLQHSTNQLAKETNELLKELGSLPLPLSTSEQRQQRLQKERLMNDFSAALNNFQAVQRRVSEKEKESIARARAGSRLSAEERQREEQLVSFDSHEEWNQMQSQEDEVAITEQDLELIKERETAIRQLEADILDVNQIFKDLAMMIHDQGDLIDSIEANVESSEVHVERATEQLQRAAYYQKKSRKKMCILVLVLSVIILILGLIIWLVYKTK | binds
5 | Synaptojanin-2-binding protein (protein, UniProt P57105 1-145) MNGRVDYLVTEEEINLTRGPSGLGFNIVGGTDQQYVSNDSGIYVSRIKENGAAALDGRLQEGDKILSVNGQDLKNLLHQDAVDLFRNAGYAVSLRVQHRLQVQNGPIGHRGEGDPSGIPIFMVLVPVFALTMVAAWAFMRYRQQL | binds
6 | Protein jagunal homolog 1 (protein, UniProt Q8N5M9 1-183) MASRAGPRAAGTDGSDFQHRERVAMHYQMSVTLKYEIKKLIYVHLVIWLLLVAKMSVGHLRLLSHDQVAMPYQWEYPYLLSILPSLLGLLSFPRNNISYLVLSMISMGLFSIAPLIYGSMEMFPAAQQLYRHGKAYRFLFGFSAVSIMYLVLVLAVQVHAWQLYYSKKLLDSWFTSTQEKKHK | binds
7 | S-methyl-5′-thioadenosine phosphorylase (protein, UniProt Q13126 1-283) MASGTTTTAVKIGIIGGTGLDDPEILEGRTEKYVDTPFGKPSDALILGKIKNVDCVLLARHGRQHTIMPSKVNYQANIWALKEEGCTHVIVTTACGSLREEIQPGDIVIIDQFIDRTTMRPQSFYDGSHSCARGVCHIPMAEPFCPKTREVLIETAKKLGLRCHSKGTMVTIEGPRFSSRAESFMFRTWGADVINMTTVPEVVLAKEAGICYASIAMATDYDCWKEHEEAVSVDRVLKTLKENANKAKSLLLTTIPQIGSTEWSETLHNLKNMAQFSVLLPRH | binds

Now from value to molecule:

Row | binding | Molecule
8 | binds | ATP-binding cassette subfamily F member 1 (from UniProt Q8NE71 1-845)
9 | binds | Aldehyde dehydrogenase (from UniProt P05091 18-517)
10 | binds | Protein disulfide-isomerase TMX3 (protein, UniProt Q96JJ7 25-454) KGFVEDLDESFKENRNDDIWLVDFYAPWCGHCKKLEPIWNEVGLEMKSIGSPVKVGKMDATSYSSIASEFGVRGYPTIKLLKGDLAYNYRGPRTKDDIIEFAHRVSGALIRPLPSQQMFEHMQKRHRVFFVYVGGESPLKEKYIDAASELIVYTYFFSASEEVVPEYVTLKEMPAVLVFKDETYFVYDEYEDGDLSSWINRERFQNYLAMDGFLLYELGDTGKLVALAVIDEKNTSVEHTRLKSIIQEVARDYRDLFHRDFQFGHMDGNDYINTLLMDELTVPTVVVLNTSNQQYFLLDRQIKNVEDMVQFINNILDGTVEAQGGDSILQRLKRIVFDAKSTIVSIFKSSPLMGCFLFGLPLGVISIMCYGIYTADTDGGYIEERYEVSKSENENQEQIEESKEQQEPSSGGSVVPTVQEPKDVLEKKKD
11 | binds | Cystatin-B (protein, UniProt P04080 1-98) MMCGAPSATQPATAETQHIADQVRSQLEEKENKKFPVFKAVSFKSQVVAGTNYFIKVHVGDEDFVHLRVFQSLPHENKPLTLSNYQTNKAKHDELTYF
12 | binds | Mannose-6-phosphate isomerase (protein, UniProt P34949 1-423) MAAPRVFPLSCAVQQYAWGKMGSNSEVARLLASSDPLAQIAEDKPYAELWMGTHPRGDAKILDNRISQKTLSQWIAENQDSLGSKVKDTFNGNLPFLFKVLSVETPLSIQAHPNKELAEKLHLQAPQHYPDANHKPEMAIALTPFQGLCGFRPVEEIVTFLKKVPEFQFLIGDEAATHLKQTMSHDSQAVASSLQSCFSHLMKSEKKVVVEQLNLLVKRISQQAAAGNNMEDIFGELLLQLHQQYPGDIGCFAIYFLNLLTLKPGEAMFLEANVPHAYLKGDCVECMACSDNTVRAGLTPKFIDVPTLCEMLSYTPSSSKDRLFLPTRSQEDPYLSIYDPPVPDFTIMKTEVPGSVTEYKVLALDSASILLMVQGTVIASTPTTQTPIPLQRGGVLFIGANESVSLKLTEPKDLLIFRACCLL
13 | binds | Adipocyte plasma membrane-associated protein (protein, UniProt Q9HDC9 1-416) MSEADGLRQRRPLRPQVVTDDDGQAPEAKDGSSFSGRVFRVTFLMLAVSLTVPLLGAMMLLESPIDPQPLSFKEPPLLLGVLHPNTKLRQAERLFENQLVGPESIAHIGDVMFTGTADGRVVKLENGEIETIARFGSGPCKTRDDEPVCGRPLGIRAGPNGTLFVADAYKGLFEVNPWKREVKLLLSSETPIEGKNMSFVNDLTVTQDGRKIYFTDSSSKWQRRDYLLLVMEGTDDGRLLEYDTVTREVKVLLDQLRFPNGVQLSPAEDFVLVAETTMARIRRVYVSGLMKGGADLFVENMPGFPDNIRPSSSGGYWVGMSTIRPNPGFSMLDFLSERPWIKRMIFKLFSQETVMKFVPRYSLVLELSDSGAFRRSLHDPDGLVATYISEVHEHDGHLYLGSFRSPFLCRLSLQAV
